Assay results reported in patent US20170204176A1.
These are yes or no findings as the source states them, for the method shown. Some entries that bind do so weakly or less than the wild type.

By UniProt entry, the sequences of proteins in these tests, tags left out. Where a name states a change or a piece, a line headed by the entry shows the natural chain unless it says otherwise.
UniProt O14763: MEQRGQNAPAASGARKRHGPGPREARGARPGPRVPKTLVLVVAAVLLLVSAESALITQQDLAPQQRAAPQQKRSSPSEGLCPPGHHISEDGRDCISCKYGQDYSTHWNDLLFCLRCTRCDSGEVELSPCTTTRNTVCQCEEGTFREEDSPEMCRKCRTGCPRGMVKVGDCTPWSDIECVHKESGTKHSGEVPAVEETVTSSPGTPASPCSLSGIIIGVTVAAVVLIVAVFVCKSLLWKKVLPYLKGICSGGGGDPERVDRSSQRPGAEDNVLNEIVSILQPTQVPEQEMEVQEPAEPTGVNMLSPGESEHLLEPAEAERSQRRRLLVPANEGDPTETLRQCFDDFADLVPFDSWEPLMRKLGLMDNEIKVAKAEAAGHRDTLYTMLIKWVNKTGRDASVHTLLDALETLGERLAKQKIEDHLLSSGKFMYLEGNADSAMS

Experiments:
[1] = target: human DR5-Fc fusion protein (human) (UniProt O14763); test: competition ELISA on DR5-Fc fusion coat
[2] = target: human DR5-Fc fusion protein (human) (UniProt O14763); test: ELISA on DR5-Fc fusion coat with or without TRAIL-His
human DR5 (human) = human DR5 (human) (UniProt O14763); test: titration with fluorescence readout (y axis: Log MFI); the text does not describe the assay format

| binding [1] | binding [2] | binding (human DR5 (human)) | Binder |
| --- | --- | --- | --- |
| binds | binds | binds | DR5 mAb 1 (antibody, V domains shown) VH: EVKFLESGGGLVQPGGSLKLSCVASGFDFSRYWMSWVRQAPGKGLEWIGEINPDSNTINYTPSLKDKFIISRDNAKNTLYLQMTKVRSEDTALYYCTRRAYYGNPAWFAYWGQGTLVTVSS VL: DIVLTQSPASLAVSLGQRATISCRASKSVSSSGYSYMHWYQQKPGQPPKVLIFLSSNLDSGVPARFSGSGSGTDFTLNIHPVEDGDAATYYCQHSRDLPPTFGGGTKLEIK |
| binds | binds | binds | DR5 mAb 2 (antibody, V domains shown) VH: KVQLQQSGAELVKPGASVKLSCKASGYTFTEYILHWVKQKSGQGLEWIGWFYPGNNNIKYNEKFKDKATLTADKSSSTVYMELSRLTSEDSAVYFCARHEQGPGYFDYWGQGTTLTVSS VL: DIVMTQSHKFMSTSVGDRVSITCKASQDVNTAVAWYQQKPGQSPKLLIYWASTRHTGVPDRFTGSGSGTDYTLTIKSVQAEDLTLYYCQQHYITPWTFGGGTKLEIK |
